From publication PMC3610633
Results are given in words; binding and its absence hold for the method and conditions named. Some binding calls cover weakened binding; strength is not graded here.

Target: T1, TCP4 (A. thaliana) (UniProt Q8LPR5)
T1 sequence: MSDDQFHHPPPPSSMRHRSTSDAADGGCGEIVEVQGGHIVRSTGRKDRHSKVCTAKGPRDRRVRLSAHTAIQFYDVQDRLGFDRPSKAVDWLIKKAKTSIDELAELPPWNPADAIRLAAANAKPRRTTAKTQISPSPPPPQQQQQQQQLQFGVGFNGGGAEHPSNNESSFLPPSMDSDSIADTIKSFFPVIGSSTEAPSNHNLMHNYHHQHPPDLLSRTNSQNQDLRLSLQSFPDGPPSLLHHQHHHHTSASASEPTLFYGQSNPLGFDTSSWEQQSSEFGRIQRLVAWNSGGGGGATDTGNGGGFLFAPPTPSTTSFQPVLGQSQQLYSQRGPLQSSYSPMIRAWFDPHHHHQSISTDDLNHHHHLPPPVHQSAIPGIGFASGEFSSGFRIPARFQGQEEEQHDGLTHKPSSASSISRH
Test: two-hybrid; yeast two-hybrid on selective medium (Leu-, Trp-, His-) with 60 mM 3-amino 1,2,4-triazole; repeated four times

B1: MYB33 (protein, UniProt Q8W1W6 1-520)
chain: MSYTSTDSDHNESPAADDNGSDCRSRWDGHALKKGPWSSAEDDILIDYVNKHGEGNWNAVQKHTSLFRCGKSCRLRWANHLRPNLKKGAFSQEEEQLIVELHAKMGNRWARMAAHLPGRTDNEIKNYWNTRIKRRQRAGLPLYPPEMHVEALEWSQEYAKSRVMGEDRRHQDFLQLGSCESNVFFDTLNFTDMVPGTFDLADMTAYKNMGNCASSPRYENFMTPTIPSSKRLWESELLYPGCSSTIKQEFSSPEQFRNTSPQTISKTCSFSVPCDVEHPLYGNRHSPVMIPDSHTPTDGIVPYSKPLYGAVKLELPSFQYSETTFDQWKKSSSPPHSDLLDPFDTYIQSPPPPTGGEESDLYSNFDTGLLDMLLLEAKIRNNSTKNNLYRSCASTIPSADLGQVTVSQTKSEEFDNSLKSFLVHSEMSTQNADETPPRQREKKRKPLLDITRPDVLLASSWLDHGLGIVKETGSMSDALAVLLGDDIGNDYMNMSVGASSGVGSCSWSNMPPVCQMTELP
B1 was tested, and the binding was “binds”.
